This note sets out measurements from patent publication US20250186633A1 (SERAC HEALTHCARE LTD, priority 2022, published 2025).

The data set is described as follows: general procedure: Fmoc solid-phase peptide synthesis; Rink Amide AM resin; HBTU (HATU for PEG unit). The conditions noted are these: whole synthesis, scale 0.25 mmol.

“Disulfide [Cys^2-6] Thioether Cyclo[CH2CO-Lys(Chelator 1-glutaryl)-Cys^2-Arg-Gly-Asp-Cys^6-Phe-Cys]-(PEG)3-NH2” showed a crude mass of 322 mg. The value for “Disulfide [Cys^2-6] Thioether Cyclo[CH2CO-Lys(Chelator 1-Glutaryl)-Cys^2-Arg-Gly-Asp-Cys^6-Phe-Cys]-NH2” was 295 mg.
